Values from PubChem BioAssay AID504791 (Drosophila RNAi Screening Center, 2011)

- Assay: 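Factors in Argonaute-based small RNA production and activity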 (primary screen)
- System: Drosophila S2-derived reporter cells
- Reagents: long dsRNA against Drosophila genes, about 150-250 ng dsRNA per well (siRNA assay); about 80-120 ng (miRNA assay)
- Timing: about 5 days (siRNA assay); about 4 days (miRNA assay)
- Conditions: copper sulfate induction of reporters: 25 µM (siRNA assay); 200 mM stated (miRNA assay), 1-2 days before reading
- Measured: 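Dual luciferase assay: Renilla to firefly signal ratio in each well, scaled to the mean ratio of its plate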
- Units: stable assay Renilla, run 1 in luminescence; stable assay firefly, run 1 in luminescence
- Hit rule: 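a well was a first-pass pick when its plate-scaled ratio rose above 1.5 (siRNA assay) or 1.6 (miRNA assay), or dropped below 0.6; a gene counted only if two separate dsRNAs agreed on retest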
The deposit covers about 23,000 reagents; shown is an unselected part of those that have a named target and a result. In the full data, 199 (0.86%) are marked active. 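Plate-scaled ratios behind the calls are not deposited; printed light signals are raw; many rows marked increased or decreased are still called inactive.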 Entries without a mark were called inactive. The record does not give: the direction of the score.

mRpS22 (mitochondrial ribosomal protein S22) [DRSC14488] → stable siRNA reporter change = reporter ratio lowered past the hit cutoff; stable assay Renilla, run 1 = 4567; stable assay firefly, run 1 = 4.47e5
CG11498 [DRSC14315] → stable assay Renilla, run 1 = 7690; stable assay firefly, run 1 = 4.48e5
CG31465 [DRSC16090] → stable assay Renilla, run 1 = 8943; stable assay firefly, run 1 = 4.48e5
nullo [DRSC18807] → stable assay Renilla, run 1 = 5879; stable assay firefly, run 1 = 3.23e5
Epac (Exchange protein directly activated by cAMP) [DRSC04969] → stable assay Renilla, run 1 = 2959; stable assay firefly, run 1 = 3.18e5
Epac (Exchange protein directly activated by cAMP) [DRSC04996] → stable assay Renilla, run 1 = 15656; stable assay firefly, run 1 = 2.00e6
Epac (Exchange protein directly activated by cAMP) [DRSC04997] → stable assay Renilla, run 1 = 6720; stable assay firefly, run 1 = 4.12e5
CG34238 [DRSC09040] → stable assay Renilla, run 1 = 4615; stable assay firefly, run 1 = 4.06e5
CG15635 [DRSC00470] → stable assay Renilla, run 1 = 3559; stable assay firefly, run 1 = 3.89e5
CG15635 [DRSC22873] → stable assay Renilla, run 1 = 4635; stable assay firefly, run 1 = 4.84e5
CG13590 [DRSC04226] → stable assay Renilla, run 1 = 4811; stable assay firefly, run 1 = 6.34e5
CG5290 [DRSC10501] → stable assay Renilla, run 1 = 9855; stable assay firefly, run 1 = 4.26e5
CG7739 [DRSC10910] → stable assay Renilla, run 1 = 6451; stable assay firefly, run 1 = 4.76e5
Ugt303B3 (UDP-glycosyltransferase family 303 member B3) [DRSC14199] → stable assay Renilla, run 1 = 8119; stable assay firefly, run 1 = 3.38e5
CG15046 [DRSC19622] → stable assay Renilla, run 1 = 7408; stable assay firefly, run 1 = 5.85e5
ox (oxen) [DRSC07520] → stable assay Renilla, run 1 = 4943; stable assay firefly, run 1 = 3.25e5
CG18428 [DRSC15326] → stable assay Renilla, run 1 = 7854; stable assay firefly, run 1 = 4.54e5
inv (invected) [DRSC07633] → stable assay Renilla, run 1 = 5845; stable assay firefly, run 1 = 4.13e5
CG3600 (retired record) [DRSC18599] → stable assay Renilla, run 1 = 5031; stable assay firefly, run 1 = 2.47e5
